Test results: the supplement of paper PMC8728848
This is one part of the list.

Legend:
Assay in all cases: glycan array binding signal (z-score within array); higher = stronger binding
Details in all cases: glycan notation: IUPAC condensed, linker removed
GlcNAc(b1-3)GalNAc = molecular target: GlcNAc(b1-3)GalNAc
How it was run: (§1)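 From the Consortium for Functional Glycomics database, 3228 arrays were curated, keeping only those whose protein sequence was available. Binding is given as a within-array Z-score averaged across arrays sharing a protein sequence and across linkers. Negative Z-scores can be read as non-binding.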

GlcNAc(b1-3)Man = molecular target: GlcNAc(b1-3)Man
How it was run: as §1

[1] = molecular target: GlcNAc(b1-3)[GlcNAc(b1-4)][GlcNAc(b1-6)]GlcNAc
How it was run: as §1

[2] = molecular target: GlcNAc(b1-3)[GlcNAc(b1-6)]Gal(b1-4)GlcNAc
How it was run: as §1

[3] = molecular target: GlcNAc(b1-3)[GlcNAc(b1-6)]GalNAc
How it was run: as §1

[4] = molecular target: GlcNAc(b1-3)[GlcNAc(b1-6)]GlcNAc(b1-4)GlcNAc
How it was run: as §1

[5] = molecular target: GlcNAc(b1-4)Gal(b1-4)GlcNAc
How it was run: as §1

GlcNAc(b1-4)GlcNAc = molecular target: GlcNAc(b1-4)GlcNAc
How it was run: as §1

[6] = molecular target: GlcNAc(b1-4)GlcNAc(b1-4)GlcNAc
How it was run: as §1

[7] = molecular target: GlcNAc(b1-4)GlcNAc(b1-4)GlcNAc(b1-4)GlcNAc(b1-4)GlcNAc
How it was run: as §1

[8] = molecular target: GlcNAc(b1-4)GlcNAc(b1-4)GlcNAc(b1-4)GlcNAc(b1-4)GlcNAc(b1-4)GlcNAc
How it was run: as §1

[9] = molecular target: GlcNAc(b1-4)[GlcNAc(b1-6)]GalNAc
How it was run: as §1

[10] = molecular target: GlcNAc(b1-6)Gal(b1-4)GlcNAc
How it was run: as §1

GlcNAc(b1-6)GalNAc = molecular target: GlcNAc(b1-6)GalNAc
How it was run: as §1

[11] = molecular target: GlcNAc6S(b1-3)Gal(b1-4)GlcNAc
How it was run: as §1

Kdn(a2-3)Gal(b1-3)GalNAc = molecular target: Kdn(a2-3)Gal(b1-3)GalNAc
How it was run: as §1

Kdn(a2-3)Gal(b1-3)GlcNAc = molecular target: Kdn(a2-3)Gal(b1-3)GlcNAc
How it was run: as §1

Kdn(a2-3)Gal(b1-4)Glc = molecular target: Kdn(a2-3)Gal(b1-4)Glc
How it was run: as §1

Kdn(a2-3)Gal(b1-4)GlcNAc = molecular target: Kdn(a2-3)Gal(b1-4)GlcNAc
How it was run: as §1

[12] = molecular target: Kdn(a2-3)Gal(b1-4)[Fuc(a1-3)]GlcNAc
How it was run: as §1

Kdn(a2-6)Gal(b1-4)GlcNAc = molecular target: Kdn(a2-6)Gal(b1-4)GlcNAc
How it was run: as §1

[13] = molecular target: Man(a1-2)Man(a1-2)Man(a1-3)Man
How it was run: as §1

[14] = molecular target: Man(a1-2)Man(a1-2)Man(a1-6)[Man(a1-3)]Man
How it was run: as §1

Man(a1-2)Man(a1-3)Man = molecular target: Man(a1-2)Man(a1-3)Man
How it was run: as §1

[15] = molecular target: Man(a1-2)Man(a1-3)[Man(a1-2)Man(a1-6)]Man
How it was run: as §1

[16] = molecular target: Man(a1-2)Man(a1-3)[Man(a1-2)Man(a1-6)]Man(a1-6)[Man(a1-2)Man(a1-2)Man(a1-3)]Man
How it was run: as §1

[17] = molecular target: Man(a1-2)Man(a1-3)[Man(a1-2)Man(a1-6)]Man(a1-6)[Man(a1-2)Man(a1-2)Man(a1-3)]Man(b1-4)GlcNAc(b1-4)GlcNAc
How it was run: as §1

[18] = molecular target: Man(a1-2)Man(a1-3)[Man(a1-6)]Man(a1-6)[Man(a1-2)Man(a1-3)]Man(b1-4)GlcNAc(b1-4)GlcNAc
How it was run: as §1

[19] = molecular target: Man(a1-2)Man(a1-6)[Man(a1-3)]Man(a1-6)[Man(a1-2)Man(a1-2)Man(a1-3)]Man
How it was run: as §1

[20] = molecular target: Man(a1-2)Man(a1-6)[Man(a1-3)]Man(a1-6)[Man(a1-2)Man(a1-2)Man(a1-3)]Man(b1-4)GlcNAc(b1-4)GlcNAc
How it was run: as §1

Man(a1-3)[Man(a1-6)]Man = molecular target: Man(a1-3)[Man(a1-6)]Man
How it was run: as §1

[21] = molecular target: Man(a1-3)[Man(a1-6)]Man(a1-6)[Man(a1-2)Man(a1-3)]Man(b1-4)GlcNAc(b1-4)GlcNAc
How it was run: as §1

[22] = molecular target: Man(a1-3)[Man(a1-6)]Man(a1-6)[Man(a1-3)]Man
How it was run: as §1

[23] = molecular target: Man(a1-3)[Man(a1-6)]Man(a1-6)[Man(a1-3)]Man(b1-4)GlcNAc(b1-4)GlcNAc
How it was run: as §1

[24] = molecular target: Man(a1-3)[Man(a1-6)]Man(b1-4)GlcNAc(b1-4)GlcNAc
How it was run: as §1

[25] = molecular target: Man(a1-3)[Man(a1-6)]Man(b1-4)GlcNAc(b1-4)[Fuc(a1-6)]GlcNAc
How it was run: as §1

Man(a1-6)Man = molecular target: Man(a1-6)Man
How it was run: as §1

Man(b1-4)GlcNAc = molecular target: Man(b1-4)GlcNAc
How it was run: as §1

MurNAc(b1-4)GlcNAc = molecular target: MurNAc(b1-4)GlcNAc
How it was run: as §1

Neu5Ac(a2-3)Gal = molecular target: Neu5Ac(a2-3)Gal
How it was run: as §1

[26] = molecular target: Neu5Ac(a2-3)Gal(b1-3)GalNAc
How it was run: as §1

[27] = molecular target: Neu5Ac(a2-3)Gal(b1-3)GalNAc(b1-3)Gal(a1-4)Gal(b1-4)Glc
How it was run: as §1

[28] = molecular target: Neu5Ac(a2-3)Gal(b1-3)GalNAc(b1-3)Gal(b1-4)GlcNAc
How it was run: as §1

[29] = molecular target: Neu5Ac(a2-3)Gal(b1-3)GalNAc(b1-4)Gal(b1-4)Glc
How it was run: as §1

[30] = molecular target: Neu5Ac(a2-3)Gal(b1-3)GalNAc(b1-4)[Neu5Ac(a2-3)]Gal(b1-4)Glc
How it was run: as §1

B1: Endo180d1-D4 (Homo sapiens), Q9UBG0 (protein)
chain: MGPGRPAPAPWPRHLLRCVLLLGCLHLGRPGAPGDAALPEPNVFLIFSHGLQGCLEAQGGQVRVTPACNTSLPAQRWKWVSRNRLFNLGTMQCLGTGWPGTNTTASLGMYECDREALNLRWHCRTLGDQLSLLLGARTSNISKPGTLERGDQTRSGQWRIYGSEEDLCALPYHEVYTIQGNSHGKPCTIPFKYDNQWFHGCTSTGREDGHLWCATTQDYGKDERWGFCPIKSNDCETFWDKDQLTDSCYQFNFQSTLSWREAWASCEQQGADLLSITEIHEQTYINGLLTGYSSTLWIGLNDLDTSGGWQWSDNSPLKYLNWESDQPDNPSEENCGVIRTESSGGWQNRDCSIALPYVCKKKPNATAEPTPPDRWANVKVECEPSWQPFQGHCYRLQAEKRSWQESKKACLRGGGDLVSIHSMAELEFITKQIKQEVEELWIGLNDLKLQMNFEWSDGSLVSFTHWHPFEPNNFRDSLEDCVTIWGPEGRWNDSPCNQSLPSICKKAGQLSQGAAEEDHGCRKGWTWHSPSCYWLGEDQVTYSEARRLCTDHGSQLVTITNRFEQAFVSSLIYNWEGEYFWTALQDLNSTGSFFWLSGDEVMYTHWNRDQPGYSRGGCVALATGSAMGLWEVKNCTSFRARYICRQSLGTPVTPELPGPDPTPSLTGSCPQGWASDTKLRYCYKVFSSERLQDKKSWVQAQGACQELGAQLLSLASYEEEHFVANMLNKIFGESEPEIHEQHWFWIGLNRRDPRGGQSWRWSDGVGFSYHNFDRSRHDDDDIRGCAVLDLASLQWVAMQCDTQLDWICKIPRGTDVREPDDSPQGRREWLRFQEAEYKFFEHHSTWAQAQRICTWFQAELTSVHSQAELDFLSHNLQKFSRAQEQHWWIGLHTSESDGRFRWTDGSIINFISWAPGKPRPVGKDKKCVYMTASREDWGDQRCLTALPYICKRSNVTKETQPPDLPTTALGGCPSDWIQFLNKCFQVQGQEPQSRVKWSEAQFSCEQQEAQLVTITNPLEQAFITASLPNVTFDLWIGLHASQRDFQWVEQEPLMYANWAPGEPSGPSPAPSGNKPTSCAVVLHSPSAHFTGRWDDRSCTEETHGFICQKGTDPSLSPSPAALPPAPGTELSYLNGTFRLLQKPLRWHDALLLCESHNASLAYVPDPYTQAFLTQAARGLRTPLWIGLAGEEGSRRYSWVSEEPLNYVGWQDGEPQQPGGCTYVDVDGAWRTTSCDTKLQGAVCGVSSGPPPPRRISYHGSCPQGLADSAWIPFREHCYSFHMELLLGHKEARQRCQRAGGAVLSILDEMENVFVWEHLQSYEGQSRGAWLGMNFNPKGGTLVWQDNTAVNYSNWGPPGLGPSMLSHNSCYWIQSNSGLWRPGACTNITMGVVCKLPRAEQSSFSPSALPENPAALVVVLMAVLLLLALLTAALILYRRRQSIERGAFEGARYSRSSSSPTEATEKNILVSDMEMNEQQE
glycan array binding signal (z-score) (GlcNAc(b1-3)GalNAc): -0.261
glycan array binding signal (z-score) (GlcNAc(b1-3)Man): 0.323
glycan array binding signal (z-score) [1]: -0.344
glycan array binding signal (z-score) [2]: -0.012
glycan array binding signal (z-score) [3]: -0.079
glycan array binding signal (z-score) [4]: -0.108
glycan array binding signal (z-score) [5]: -0.605
glycan array binding signal (z-score) (GlcNAc(b1-4)GlcNAc): -0.441
glycan array binding signal (z-score) [6]: -0.355
glycan array binding signal (z-score) [7]: -0.159
glycan array binding signal (z-score) [8]: -0.257
glycan array binding signal (z-score) [9]: -1.12
glycan array binding signal (z-score) [10]: 0.095
glycan array binding signal (z-score) (GlcNAc(b1-6)GalNAc): -0.554
glycan array binding signal (z-score) [11]: -0.181
glycan array binding signal (z-score) (Kdn(a2-3)Gal(b1-3)GalNAc): 0.105
glycan array binding signal (z-score) (Kdn(a2-3)Gal(b1-3)GlcNAc): 0.173
glycan array binding signal (z-score) (Kdn(a2-3)Gal(b1-4)Glc): -1.02
glycan array binding signal (z-score) (Kdn(a2-3)Gal(b1-4)GlcNAc): 0.45
glycan array binding signal (z-score) [12]: -2.97
glycan array binding signal (z-score) (Kdn(a2-6)Gal(b1-4)GlcNAc): 0.204
glycan array binding signal (z-score) [13]: -0.417
glycan array binding signal (z-score) [14]: -0.05
glycan array binding signal (z-score) (Man(a1-2)Man(a1-3)Man): -0.067
glycan array binding signal (z-score) [15]: 0.123
glycan array binding signal (z-score) [16]: 0.575
glycan array binding signal (z-score) [17]: -0.678
glycan array binding signal (z-score) [18]: -0.036
glycan array binding signal (z-score) [19]: 1.1
glycan array binding signal (z-score) [20]: -0.491
glycan array binding signal (z-score) (Man(a1-3)[Man(a1-6)]Man): -0.357
glycan array binding signal (z-score) [21]: -0.787
glycan array binding signal (z-score) [22]: 0.364
glycan array binding signal (z-score) [23]: -1.22
glycan array binding signal (z-score) [24]: -0.209
glycan array binding signal (z-score) [25]: 0.638
glycan array binding signal (z-score) (Man(a1-6)Man): -0.201
glycan array binding signal (z-score) (Man(b1-4)GlcNAc): -0.742
glycan array binding signal (z-score) (MurNAc(b1-4)GlcNAc): -0.451
glycan array binding signal (z-score) (Neu5Ac(a2-3)Gal): -1.18
glycan array binding signal (z-score) [26]: 0.233
glycan array binding signal (z-score) [27]: 0.142
glycan array binding signal (z-score) [28]: 0.173
glycan array binding signal (z-score) [29]: -3.76
glycan array binding signal (z-score) [30]: -0.22
